This note sets out measurements from article PMC10662729.

By UniProt entry, the sequences of proteins in these tests, tags left out. Residues count along the entry.
UniProt P35869, residues 11-848: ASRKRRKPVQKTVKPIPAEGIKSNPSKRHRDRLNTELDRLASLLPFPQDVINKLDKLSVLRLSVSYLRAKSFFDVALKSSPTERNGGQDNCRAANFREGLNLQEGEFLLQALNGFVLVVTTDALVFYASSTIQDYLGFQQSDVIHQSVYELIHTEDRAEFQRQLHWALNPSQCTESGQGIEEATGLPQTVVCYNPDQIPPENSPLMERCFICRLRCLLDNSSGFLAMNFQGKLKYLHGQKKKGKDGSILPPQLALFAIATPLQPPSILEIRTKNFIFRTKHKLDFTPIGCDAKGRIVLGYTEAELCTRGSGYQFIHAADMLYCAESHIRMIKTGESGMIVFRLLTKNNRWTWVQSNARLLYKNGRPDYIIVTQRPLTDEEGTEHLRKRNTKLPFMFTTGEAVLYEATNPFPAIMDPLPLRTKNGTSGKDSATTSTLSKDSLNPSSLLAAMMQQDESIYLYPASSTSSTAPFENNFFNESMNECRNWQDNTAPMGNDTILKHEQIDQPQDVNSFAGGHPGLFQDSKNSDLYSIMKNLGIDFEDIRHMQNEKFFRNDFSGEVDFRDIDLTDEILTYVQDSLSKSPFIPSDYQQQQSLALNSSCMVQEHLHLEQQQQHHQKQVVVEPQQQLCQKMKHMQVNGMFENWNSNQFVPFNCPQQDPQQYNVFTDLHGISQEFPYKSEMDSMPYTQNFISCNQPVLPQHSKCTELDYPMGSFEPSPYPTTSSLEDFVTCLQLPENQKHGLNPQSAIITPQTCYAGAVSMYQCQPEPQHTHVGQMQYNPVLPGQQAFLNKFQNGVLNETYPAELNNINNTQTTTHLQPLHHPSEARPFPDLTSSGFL
UniProt P53350: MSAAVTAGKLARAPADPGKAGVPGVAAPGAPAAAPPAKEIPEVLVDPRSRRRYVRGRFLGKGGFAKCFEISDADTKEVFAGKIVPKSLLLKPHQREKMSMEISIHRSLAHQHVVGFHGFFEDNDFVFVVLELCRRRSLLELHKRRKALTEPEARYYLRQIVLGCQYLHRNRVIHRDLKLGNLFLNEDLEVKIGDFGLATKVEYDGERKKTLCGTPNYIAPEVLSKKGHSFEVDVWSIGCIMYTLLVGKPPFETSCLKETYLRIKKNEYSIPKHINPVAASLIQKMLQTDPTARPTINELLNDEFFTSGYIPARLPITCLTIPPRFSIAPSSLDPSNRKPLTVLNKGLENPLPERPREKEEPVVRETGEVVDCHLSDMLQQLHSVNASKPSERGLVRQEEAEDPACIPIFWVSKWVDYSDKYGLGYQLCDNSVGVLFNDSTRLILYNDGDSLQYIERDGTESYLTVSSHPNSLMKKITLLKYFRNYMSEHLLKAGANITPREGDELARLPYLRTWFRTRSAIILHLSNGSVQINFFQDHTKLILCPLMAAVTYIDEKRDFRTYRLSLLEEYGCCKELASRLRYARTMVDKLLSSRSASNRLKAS

Results are given in words; binding and its absence hold for the method and conditions named. Binding seen in cells or lysates may run through a third protein. Some results given as binding are weak or reduced against the parent protein; the word gives no strength.

The target of this assay is Aryl hydrocarbon receptor (human (endogenous in A549)) (UniProt P35869). As to the kind of experiment: co-IP; endogenous proteins in A549 lysate (1 mg total protein) incubated with anti-AHR, anti-PLK1 or IgG control antibodies overnight; Protein A/G magnetic beads at room temperature 30 min; washed three times with 1x TBST; immunoblot; 10% lysate as input.

For the substance “Polo-like kinase 1 (from UniProt P53350 1-603) (enzyme)”, the binding result is on record as “binds”.
